Results taken from patent US5760003 (dated 1998).
Where no end group is shown, it is not given here. [ ]: non-standard residue; d: D form. pGlu = O=C1CC[C@@H](C(=O)O)N1; Abu = CC[C@H](N)C(=O)O

Columns and labels:
[1] = general procedure: Boc solid-phase peptide synthesis; BOC-Lys(Cl-Z)-PAM resin; conditions: whole synthesis
[2] = general procedure: Boc solid-phase peptide synthesis; BOC-Lys (Cl-Z)-PAM resin (substitution 0.63 mM/g); conditions: whole synthesis

| Substance | crude mass ([1]; scale 0.56 mm) | final HPLC purity [2] | crude mass [1] | isolated mass [1] | isolated mass ([1]; scale 0.56 mm) |
| --- | --- | --- | --- | --- | --- |
| [pGlu]ED[Abu]YK | Four hundred and fifty-four milligrams | 90% | – | – | – |
| [pGlu]ED[Abu]K | – | – | Two hundred twenty milligrams | 130 mg | – |
| Pic-Ser-Asp-Abu-Lys | Two hundred and ninety-eight milligrams | 97% | – | – | 178 mg |
| Pic-Glu-Asp-Abu-Lys | – | 97% | Two hundred and fifty-one milligrams | 141 mg | – |
